Source: patent publication US20250313647A1 (CHILDREN S MEDICAL CENTER, published 2025)
Results are given in words; binding and its absence hold for the method and conditions named. Some entries that bind do so weakly or less than the wild type.

Sequences of proteins named here, by UniProt entry; tags and fusion partners are left off. A change or cut given only in a name is not applied to a line headed by its entry. A line that says so, or that is headed by a name, gives the form on record, which may keep a tag or linker.
human mutant nucleophosmin 1 (NPM1c) (P06748, form named): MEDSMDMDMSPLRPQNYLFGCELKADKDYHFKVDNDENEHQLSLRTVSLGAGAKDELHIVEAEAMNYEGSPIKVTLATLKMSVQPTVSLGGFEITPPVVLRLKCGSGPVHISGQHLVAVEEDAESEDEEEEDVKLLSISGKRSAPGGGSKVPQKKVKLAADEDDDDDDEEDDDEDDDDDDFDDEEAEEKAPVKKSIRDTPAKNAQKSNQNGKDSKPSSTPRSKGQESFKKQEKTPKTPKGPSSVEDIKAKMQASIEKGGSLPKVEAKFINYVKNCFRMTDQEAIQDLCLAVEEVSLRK

Experiments:
[1] = target: human mutant nucleophosmin 1 (NPM1c) (human) (UniProt P06748); experiment: FACS, human NPM1c PDX cells (FIG. 8B)
[2] = target: human mutant nucleophosmin 1 (NPM1c) (human) (UniProt P06748); experiment: flow cytometry, human AML PDX-2 (NPM1c) cells from mice

B1: Ab1 anti-NPM1 antibody (antibody, V domains shown)
VH: EVQLQQSVAELVRPGASVKLSCTASGFNIKNIFVHWVKQRPEQGLEWIGKIDPANDNTKFAPNFQGKAAISADTSSNTAYLQLSSLTSEDTAIYYCASDSSGYDAVDYWGQGTSVTVSS
VL: DIQMTQSPASLSASVGETVTITCRASESVYTYLAWYQQKQGKSPQLLVYNAKTLTEGVPSRFSGSGSGTQFSLRINSLQPEDFGSYYCQHHYGTPYTFGSGTKLEIKR
notes: also called isolated WT anti-NPM1 antibody
binding [1]: binds | binding [2]: binds
